Test results from PubChem BioAssay AID2685 (National Center for Advancing Translational Sciences (NCATS), 2010).
Some of the results follow. Further columns of the screen follow, without active or inactive calls. The list favours compounds with an active or inconclusive main result. Words in brackets tell the shape of the fitted curve; partial curves, single points and poor fits give uncertain potencies.

Experiment: qHTS Assay for Lipid Storage Modulators in Drosophila S3 Cells;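 as to cell number change: cells counted by Cell Tracker Red CMTPX staining in the red channel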
Settings: BODIPY lipid droplet fluorescence, 18-24 h; for cell number change: measured here: cell count max response, cells fed with added oleic acid
In short: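 Drosophila S3 cells loaded with oleic acid (400 uM, as added) and compounds at several concentrations; lipid droplets imaged by 488-nm laser-scanning cytometry, 500–530 nm intensity and object ratio to cell channel. Percent activity normalized to 20 uM Triacsin C.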

[1] = measured here: cell number channel AC50, cells fed with added oleic acid
[2] = measured here: lipid fluorescence (Fed channel) AC50, cells fed with added oleic acid

CCOC(=O)c1c(C)[nH]c(C(=O)OCC(=O)NCCc2ccc(OCC)c(OCC)c2)c1C
cell number change: -58.5%
AC50 [1]: 8.2 µM [falling, partial curve]
AC50 [2]: 5.8 µM [falling, partial curve]

CCOc1ccccc1Nc1nc(N)nc(CSc2nncn2C)n1
cell number change: 145%
AC50 [1]: 25.9 µM [rising, single point]

Cc1ccc(-c2nn(-c3ccccc3)cc2C(N)=O)o1
cell number change: 156%
AC50 [2]: 18.4 µM [rising, partial curve]

Cc1ccccc1NC(=O)C1CCCN(c2nnc(N3CCCC3=O)s2)C1 (stereo not drawn)
cell number change: 13.5%
AC50 [2]: 6.51 µM [rising, single point]

O=C(OC1CCOC1=O)c1cccc(S(=O)(=O)Nc2ccc(F)cc2)c1 (stereo not drawn)
cell number change: -29.5%
AC50 [2]: 0.731 µM [falling, full curve]

CC(=O)C1=C(O)C(=O)N(c2ccccn2)C1c1cccc(F)c1 (stereo not drawn)
cell number change: 13.9%
AC50 [2]: 0.58 µM [falling, single point]

CCC(CO)[n+]1c(C)cc(/C=C2\Sc3ccccc3N2Cc2ccccc2)cc1C (stereo not drawn)
cell number change: -58.9%
AC50 [1]: 5.8 µM [falling, full curve]

Cn1cc(CCC(=O)NCc2cccc(Cl)c2)c2ccccc21
cell number change: 22.5%
AC50 [1]: 4.11 µM [rising, full curve, poor fit]

CN(c1ccccc1)S(=O)(=O)c1ccc(NC(=S)NC(=O)c2ccccc2)cc1
AC50 [1]: 0.92 µM [rising, partial curve]
AC50 [2]: 2.91 µM [rising, full curve]

CCOC(=O)N1CCN(C(=O)COC(=O)CNC(=O)c2ccc(Cl)cc2Cl)CC1
cell number change: -25%
AC50 [1]: 1.46 µM [falling, full curve, poor fit]

O=C1CCN(Cc2ccccc2)CCN1CCOc1ccccc1
cell number change: 16.2%
AC50 [2]: 0.651 µM [rising, single point]

Cc1c(C(=O)N(Cc2ccccc2)C(C)C)oc2ccc(S(=O)(=O)N3CCOCC3)cc12
cell number change: -33.6%
AC50 [1]: 4.11 µM [falling, full curve, poor fit]
AC50 [2]: 14.6 µM [falling, partial curve]

Cc1cc(C(=O)N/N=C2\CC(=O)CC(C)(C)C2)c(C)n1-c1ccc(F)cc1
cell number change: 23.7%
AC50 [2]: 16.4 µM [rising, single point]

C/C(=N/NC(=O)C(C)n1nc(C)c([N+](=O)[O-])c1C)c1ccc(OCC(N)=O)cc1 (stereo not drawn)
cell number change: 59%
AC50 [1]: 25.9 µM [rising, partial curve, poor fit]
AC50 [2]: 29.1 µM [rising, single point]

CCc1ccccc1NC(=O)c1ccc(S(=O)(=O)N2CCCC2)cc1
cell number change: -11.5%
AC50 [2]: 29.1 µM [falling, partial curve, poor fit]
